The supplement of paper PMC10849652
The other results are listed elsewhere or left out.

Amino acid sequences for entries named in this document (tags omitted). A change or cut given only in a name is not applied to a line headed by its entry.
UniProt O43676, whole entry, looked up: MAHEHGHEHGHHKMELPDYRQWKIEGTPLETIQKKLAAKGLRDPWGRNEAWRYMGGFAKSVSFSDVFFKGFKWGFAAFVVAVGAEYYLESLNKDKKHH
UniProt Q147X3: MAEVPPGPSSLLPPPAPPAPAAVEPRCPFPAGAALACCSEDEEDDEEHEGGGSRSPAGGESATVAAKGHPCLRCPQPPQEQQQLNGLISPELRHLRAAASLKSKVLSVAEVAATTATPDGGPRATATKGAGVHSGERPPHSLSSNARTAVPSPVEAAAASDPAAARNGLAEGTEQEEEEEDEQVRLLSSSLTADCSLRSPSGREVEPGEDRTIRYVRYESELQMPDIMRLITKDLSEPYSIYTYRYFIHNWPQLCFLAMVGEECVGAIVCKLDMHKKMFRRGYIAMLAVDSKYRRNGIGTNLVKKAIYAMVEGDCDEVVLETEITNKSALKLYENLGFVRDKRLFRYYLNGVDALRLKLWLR
UniProt O76041: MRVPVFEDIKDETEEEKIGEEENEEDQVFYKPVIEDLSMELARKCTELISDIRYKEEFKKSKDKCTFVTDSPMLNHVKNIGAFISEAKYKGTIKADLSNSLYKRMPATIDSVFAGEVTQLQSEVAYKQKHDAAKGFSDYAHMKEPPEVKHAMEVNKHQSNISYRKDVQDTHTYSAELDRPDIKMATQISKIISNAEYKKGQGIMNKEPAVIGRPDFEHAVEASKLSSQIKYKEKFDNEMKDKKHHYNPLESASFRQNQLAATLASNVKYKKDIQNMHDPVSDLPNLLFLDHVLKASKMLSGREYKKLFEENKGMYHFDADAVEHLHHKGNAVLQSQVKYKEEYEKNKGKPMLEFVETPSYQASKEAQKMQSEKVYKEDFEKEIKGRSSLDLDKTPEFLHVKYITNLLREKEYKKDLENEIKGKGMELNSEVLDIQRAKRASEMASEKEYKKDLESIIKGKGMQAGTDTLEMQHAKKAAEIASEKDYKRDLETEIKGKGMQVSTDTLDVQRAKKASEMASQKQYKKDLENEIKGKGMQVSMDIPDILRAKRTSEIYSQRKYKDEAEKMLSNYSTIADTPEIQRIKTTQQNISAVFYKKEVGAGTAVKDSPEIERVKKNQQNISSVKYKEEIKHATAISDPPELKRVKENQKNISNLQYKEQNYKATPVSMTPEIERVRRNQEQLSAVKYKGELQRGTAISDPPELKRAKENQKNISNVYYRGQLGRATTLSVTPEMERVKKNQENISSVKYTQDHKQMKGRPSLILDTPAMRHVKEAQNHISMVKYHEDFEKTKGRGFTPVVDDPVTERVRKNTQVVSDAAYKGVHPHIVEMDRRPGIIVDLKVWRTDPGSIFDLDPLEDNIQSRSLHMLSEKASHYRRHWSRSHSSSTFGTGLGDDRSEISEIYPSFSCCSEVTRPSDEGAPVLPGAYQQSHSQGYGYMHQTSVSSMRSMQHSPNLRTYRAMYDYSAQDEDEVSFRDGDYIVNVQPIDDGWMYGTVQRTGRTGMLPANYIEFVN
UniProt P54920: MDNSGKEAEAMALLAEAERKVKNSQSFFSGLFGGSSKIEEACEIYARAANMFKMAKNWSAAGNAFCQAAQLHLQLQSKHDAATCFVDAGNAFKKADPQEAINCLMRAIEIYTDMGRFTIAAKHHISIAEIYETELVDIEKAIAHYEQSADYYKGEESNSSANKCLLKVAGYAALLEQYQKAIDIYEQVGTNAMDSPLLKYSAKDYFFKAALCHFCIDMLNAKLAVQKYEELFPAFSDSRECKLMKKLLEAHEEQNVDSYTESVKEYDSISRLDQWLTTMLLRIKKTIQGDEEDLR
UniProt P41227: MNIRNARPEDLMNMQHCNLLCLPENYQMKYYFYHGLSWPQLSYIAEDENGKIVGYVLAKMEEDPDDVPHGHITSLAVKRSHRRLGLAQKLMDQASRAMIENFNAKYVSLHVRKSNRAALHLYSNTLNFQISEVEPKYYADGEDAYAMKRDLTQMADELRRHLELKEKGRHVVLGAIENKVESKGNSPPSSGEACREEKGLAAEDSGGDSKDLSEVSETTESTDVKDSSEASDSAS
UniProt P12036: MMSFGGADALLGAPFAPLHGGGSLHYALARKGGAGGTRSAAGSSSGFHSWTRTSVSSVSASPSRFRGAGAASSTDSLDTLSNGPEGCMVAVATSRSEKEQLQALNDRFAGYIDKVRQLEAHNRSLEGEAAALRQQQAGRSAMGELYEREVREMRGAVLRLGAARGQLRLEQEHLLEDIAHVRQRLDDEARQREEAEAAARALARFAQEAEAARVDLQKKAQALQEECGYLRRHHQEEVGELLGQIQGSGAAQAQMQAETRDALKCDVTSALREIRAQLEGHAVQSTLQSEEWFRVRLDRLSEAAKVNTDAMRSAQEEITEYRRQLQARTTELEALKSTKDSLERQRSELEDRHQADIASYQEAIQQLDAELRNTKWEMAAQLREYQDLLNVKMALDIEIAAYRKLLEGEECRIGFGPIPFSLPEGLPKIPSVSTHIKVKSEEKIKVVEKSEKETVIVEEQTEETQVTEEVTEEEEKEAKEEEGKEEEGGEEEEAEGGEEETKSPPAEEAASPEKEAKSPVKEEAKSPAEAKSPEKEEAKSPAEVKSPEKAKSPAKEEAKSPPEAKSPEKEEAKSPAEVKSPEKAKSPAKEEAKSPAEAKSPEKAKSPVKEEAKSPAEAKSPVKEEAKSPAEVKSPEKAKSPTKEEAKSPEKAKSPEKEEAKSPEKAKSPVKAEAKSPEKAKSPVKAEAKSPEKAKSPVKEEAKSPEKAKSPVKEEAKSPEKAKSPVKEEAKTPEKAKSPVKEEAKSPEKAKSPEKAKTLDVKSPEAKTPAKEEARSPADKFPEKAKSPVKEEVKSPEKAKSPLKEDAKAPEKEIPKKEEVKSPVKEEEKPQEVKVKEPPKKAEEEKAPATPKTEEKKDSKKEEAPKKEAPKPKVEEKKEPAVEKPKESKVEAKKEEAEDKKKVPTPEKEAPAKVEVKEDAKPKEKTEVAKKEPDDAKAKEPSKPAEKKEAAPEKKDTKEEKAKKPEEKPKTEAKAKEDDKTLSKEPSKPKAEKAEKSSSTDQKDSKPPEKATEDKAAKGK
UniProt P52298: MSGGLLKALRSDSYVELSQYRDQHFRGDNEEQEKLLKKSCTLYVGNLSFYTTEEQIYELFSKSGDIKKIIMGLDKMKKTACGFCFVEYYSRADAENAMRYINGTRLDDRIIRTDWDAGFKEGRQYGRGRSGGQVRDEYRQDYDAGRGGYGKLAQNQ
UniProt Q8IW45: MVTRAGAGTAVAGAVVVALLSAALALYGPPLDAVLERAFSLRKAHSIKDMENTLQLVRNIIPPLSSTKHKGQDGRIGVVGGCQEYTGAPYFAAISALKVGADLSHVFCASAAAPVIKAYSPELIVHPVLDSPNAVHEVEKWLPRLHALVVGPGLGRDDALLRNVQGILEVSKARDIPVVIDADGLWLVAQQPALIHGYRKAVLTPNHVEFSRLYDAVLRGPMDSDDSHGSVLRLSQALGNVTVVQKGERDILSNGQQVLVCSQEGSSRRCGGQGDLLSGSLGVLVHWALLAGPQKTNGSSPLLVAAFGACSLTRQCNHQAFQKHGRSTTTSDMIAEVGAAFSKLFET
UniProt Q9UJ70, whole entry, looked up: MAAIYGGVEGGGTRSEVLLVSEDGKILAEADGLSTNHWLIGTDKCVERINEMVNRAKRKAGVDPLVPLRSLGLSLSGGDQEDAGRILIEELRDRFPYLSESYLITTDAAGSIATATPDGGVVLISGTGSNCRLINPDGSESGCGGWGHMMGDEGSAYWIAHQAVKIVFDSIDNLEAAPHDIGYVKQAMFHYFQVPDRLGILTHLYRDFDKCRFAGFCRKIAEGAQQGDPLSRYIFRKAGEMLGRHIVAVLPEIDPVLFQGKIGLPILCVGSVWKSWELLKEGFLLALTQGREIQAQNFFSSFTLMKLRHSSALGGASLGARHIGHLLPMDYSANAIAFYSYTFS
UniProt O95299, whole entry, looked up: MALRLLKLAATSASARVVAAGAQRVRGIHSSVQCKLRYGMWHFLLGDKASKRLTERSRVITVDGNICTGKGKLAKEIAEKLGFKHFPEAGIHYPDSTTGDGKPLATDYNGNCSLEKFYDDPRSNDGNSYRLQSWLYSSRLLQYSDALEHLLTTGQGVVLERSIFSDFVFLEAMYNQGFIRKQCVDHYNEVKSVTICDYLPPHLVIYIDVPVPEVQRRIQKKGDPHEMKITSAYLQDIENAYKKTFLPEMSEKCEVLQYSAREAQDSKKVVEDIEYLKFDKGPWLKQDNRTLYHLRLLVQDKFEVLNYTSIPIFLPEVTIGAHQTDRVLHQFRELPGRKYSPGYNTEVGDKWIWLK
UniProt Q8NHV4, whole entry, looked up: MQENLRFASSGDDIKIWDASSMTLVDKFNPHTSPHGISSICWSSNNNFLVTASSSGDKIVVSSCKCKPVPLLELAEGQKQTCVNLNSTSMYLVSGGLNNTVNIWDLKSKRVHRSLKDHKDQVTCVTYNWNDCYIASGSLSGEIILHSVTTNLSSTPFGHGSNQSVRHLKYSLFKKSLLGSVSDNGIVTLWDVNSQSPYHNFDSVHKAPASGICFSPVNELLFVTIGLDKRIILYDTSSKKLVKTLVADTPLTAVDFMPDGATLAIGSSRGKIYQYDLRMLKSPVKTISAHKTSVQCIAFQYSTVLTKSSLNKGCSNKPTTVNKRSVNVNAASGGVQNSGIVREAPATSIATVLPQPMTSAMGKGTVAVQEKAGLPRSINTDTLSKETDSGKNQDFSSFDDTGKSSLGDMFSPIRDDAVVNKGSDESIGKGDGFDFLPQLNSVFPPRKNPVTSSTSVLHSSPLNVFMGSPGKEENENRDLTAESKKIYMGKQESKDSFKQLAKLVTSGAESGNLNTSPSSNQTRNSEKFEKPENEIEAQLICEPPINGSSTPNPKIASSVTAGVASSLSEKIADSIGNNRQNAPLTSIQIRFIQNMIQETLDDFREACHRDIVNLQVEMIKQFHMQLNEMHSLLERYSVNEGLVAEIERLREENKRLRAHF
UniProt Q4G0N4: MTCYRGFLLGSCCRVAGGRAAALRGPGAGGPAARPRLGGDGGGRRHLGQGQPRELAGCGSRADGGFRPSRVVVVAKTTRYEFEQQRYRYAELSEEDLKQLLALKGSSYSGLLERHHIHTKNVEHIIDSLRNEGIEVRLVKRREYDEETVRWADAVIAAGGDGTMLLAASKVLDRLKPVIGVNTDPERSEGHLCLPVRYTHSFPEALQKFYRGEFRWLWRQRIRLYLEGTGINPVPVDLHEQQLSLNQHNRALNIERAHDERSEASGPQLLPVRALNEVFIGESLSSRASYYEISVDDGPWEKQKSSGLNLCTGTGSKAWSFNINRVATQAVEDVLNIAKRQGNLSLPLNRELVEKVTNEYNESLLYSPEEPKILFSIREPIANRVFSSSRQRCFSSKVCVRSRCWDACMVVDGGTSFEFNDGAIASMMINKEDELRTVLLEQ
UniProt Q9P0J0, whole entry, looked up: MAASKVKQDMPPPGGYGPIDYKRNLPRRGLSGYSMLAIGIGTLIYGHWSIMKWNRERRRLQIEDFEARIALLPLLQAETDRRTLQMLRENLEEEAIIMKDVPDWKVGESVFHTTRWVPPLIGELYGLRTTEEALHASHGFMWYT
UniProt Q9NXR1: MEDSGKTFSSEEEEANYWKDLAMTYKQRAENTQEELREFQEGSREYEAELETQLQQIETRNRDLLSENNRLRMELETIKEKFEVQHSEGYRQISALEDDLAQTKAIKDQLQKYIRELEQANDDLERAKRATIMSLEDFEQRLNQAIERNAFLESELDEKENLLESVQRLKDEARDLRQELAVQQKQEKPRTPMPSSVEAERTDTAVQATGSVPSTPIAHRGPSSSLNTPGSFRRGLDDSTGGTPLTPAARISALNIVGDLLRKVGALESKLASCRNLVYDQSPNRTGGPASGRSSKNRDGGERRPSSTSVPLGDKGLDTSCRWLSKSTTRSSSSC
UniProt P28331, whole entry, looked up: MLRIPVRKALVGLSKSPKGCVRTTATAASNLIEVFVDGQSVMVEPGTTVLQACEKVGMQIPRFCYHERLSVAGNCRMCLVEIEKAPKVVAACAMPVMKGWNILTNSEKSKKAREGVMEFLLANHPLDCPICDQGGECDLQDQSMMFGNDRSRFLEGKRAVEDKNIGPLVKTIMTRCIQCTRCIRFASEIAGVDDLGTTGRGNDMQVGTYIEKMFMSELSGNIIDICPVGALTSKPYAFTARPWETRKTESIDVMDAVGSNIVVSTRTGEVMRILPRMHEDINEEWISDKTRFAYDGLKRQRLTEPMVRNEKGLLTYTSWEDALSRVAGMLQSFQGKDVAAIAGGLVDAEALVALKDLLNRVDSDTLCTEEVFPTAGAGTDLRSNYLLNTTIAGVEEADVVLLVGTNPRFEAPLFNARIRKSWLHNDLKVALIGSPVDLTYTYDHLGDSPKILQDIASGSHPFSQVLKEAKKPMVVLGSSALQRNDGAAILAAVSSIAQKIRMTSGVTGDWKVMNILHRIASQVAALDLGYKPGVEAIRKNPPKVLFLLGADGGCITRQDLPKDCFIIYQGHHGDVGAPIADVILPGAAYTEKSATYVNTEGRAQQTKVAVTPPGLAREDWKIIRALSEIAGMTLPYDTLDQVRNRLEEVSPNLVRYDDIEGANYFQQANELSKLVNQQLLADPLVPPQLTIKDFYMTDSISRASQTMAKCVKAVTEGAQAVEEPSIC
UniProt O75438, whole entry, looked up: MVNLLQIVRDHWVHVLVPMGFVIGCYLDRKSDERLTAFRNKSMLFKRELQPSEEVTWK

Columns and labels:
Assay in all cases: log2 fold change, soluble protein after heating vs DMSO (PISA); higher = thermal stabilisation; K562 cells, 10 uM, 30 min; active = over 0.2 and 3.5 SD of the protein, either way, in both replicates (recomputed)
[1] = compound: COC1=CC=C(C=C1)CN2C=CC3=C2C=C(C=C3)C(=O)NO
How it was run: (§1)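 K562 cells at 2×10^6 cells/mL were treated for 30 min with 10 μM compound, and aliquots were heated for 3 min over 48°C-58°C before pooling. Extraction used PBS with 0.5% NP-40 at 4°C, and soluble protein was the supernatant after 21,000xg for 90 min, measured by TMTpro 16plex LC-MS/MS with channel sums equalised. Thermal stability values, relative to control samples and from duplicates, are log2 fold changes.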

filanesib = compound: CON(C)C(=O)N1N=C(c2cc(F)ccc2F)S[C@@]1(CCCN)c1ccccc1 [filanesib]
How it was run: as §1

zotarolimus = compound: CO[C@H]1C[C@@H]2CC[C@@H](C)[C@@](O)(O2)C(=O)C(=O)N2CCCC[C@H]2C(=O)O[C@H]([C@H](C)C[C@@H]2CC[C@H](n3cnnn3)[C@H](OC)C2)CC(=O)[C@H](C)/C=C(\C)[C@@H](O)[C@@H](OC)C(=O)[C@H](C)C[C@H](C)/C=C/C=C/C=C/1C [zotarolimus]
How it was run: as §1

idasanutlin = compound: COc1cc(C(=O)O)ccc1NC(=O)[C@@H]1N[C@@H](CC(C)(C)C)[C@](C#N)(c2ccc(Cl)cc2F)[C@H]1c1cccc(Cl)c1F [idasanutlin]
How it was run: as §1

alisertib = compound: COc1cc(Nc2ncc3c(n2)-c2ccc(Cl)cc2C(c2c(F)cccc2OC)=NC3)ccc1C(=O)O [alisertib]
How it was run: as §1

[2] = compound: COc1cc2nc(-c3cc(F)ccc3O)nc(N[C@@H]3CNC[C@H]3C(C)(C)O)c2cc1OC
How it was run: as §1

gefitinib = compound: COc1cc2ncnc(Nc3ccc(F)c(Cl)c3)c2cc1OCCCN1CCOCC1 [gefitinib]
How it was run: as §1

[3] = compound: COc1cccc2cc(-c3nc([C@H]4CC[C@H](C(=O)O)CC4)n4ncnc(N)c34)[nH]c12
How it was run: as §1

lapatinib = compound: CS(=O)(=O)CCNCc1ccc(-c2ccc3ncnc(Nc4ccc(OCc5cccc(F)c5)c(Cl)c4)c3c2)o1 [lapatinib]
How it was run: as §1

pictilisib = compound: CS(=O)(=O)N1CCN(Cc2cc3nc(-c4cccc5[nH]ncc45)nc(N4CCOCC4)c3s2)CC1 [pictilisib]
How it was run: as §1

Measured: log2 fold change

NDUFB3 (UniProt O43676)
inactive: [1] -0.047 | filanesib -0.003 | zotarolimus -0.029 | idasanutlin -0.003 | alisertib -0.021 | [2] -0.058 | gefitinib -0.03 | [3] 0.068 | lapatinib -0.005 | pictilisib 0.051

NAA30 (UniProt Q147X3)
inactive: [1] -0.037 | filanesib -0.093 | zotarolimus 0.062 | idasanutlin -0.027 | alisertib -0.06 | [2] -0.047 | gefitinib 0.019 | [3] 0.067 | lapatinib 0.066 | pictilisib -0.004

NDUFA5 (UniProt Q16718)
inactive: [1] -0.116 | filanesib 0.029 | zotarolimus 0.056 | idasanutlin -0.005 | alisertib -0.041 | [2] -0.106 | gefitinib 0.039 | [3] 0.03 | lapatinib -0.029 | pictilisib -0.072

NEBL (UniProt O76041)
inactive: [1] -0.005 | filanesib 0 | zotarolimus 0.16 | idasanutlin 0.061 | alisertib -0.062 | [2] 0.039 | gefitinib -0.019 | [3] 0.059 | lapatinib 0.013

NCK1 (UniProt P16333)
inactive: [1] 0.049 | filanesib -0.054 | zotarolimus 0.13 | idasanutlin -0.001 | alisertib -0.127 | [2] -0.165 | gefitinib 0.002 | [3] -0.024 | lapatinib -0.066

NARS2 (UniProt Q96I59)
inactive: [1] -0.213 | filanesib -0.196 | zotarolimus 0.027 | idasanutlin -0.072 | alisertib -0.046 | [2] 0.007 | gefitinib -0.039 | [3] 0.09 | lapatinib -0.031 | pictilisib -0.037

NAPA (UniProt P54920)
inactive: [1] -0.01 | filanesib -0.048 | zotarolimus 0.02 | idasanutlin -0.043 | alisertib 0.043 | [2] -0.007 | gefitinib -0.012 | [3] -0.013 | lapatinib 0.003 | pictilisib 0.009

NAA10 (UniProt P41227)
inactive: [1] 0.013 | filanesib -0.04 | zotarolimus 0.007 | idasanutlin -0.047 | alisertib 0.023 | [2] -0.014 | gefitinib 0 | [3] 0.015 | lapatinib 0.012 | pictilisib -0.005

NEFH (UniProt P12036)
inactive: [1] -0.092 | filanesib 0.305 | zotarolimus 0.066 | idasanutlin 0.236 | alisertib -0.378 | [2] -0.18 | gefitinib -0.055 | [3] -0.4 | lapatinib 0.086 | pictilisib -0.067

NAP1L1 (UniProt P55209)
inactive: [1] -0.001 | filanesib 0.08 | zotarolimus 0.078 | idasanutlin 0.053 | alisertib -0.043 | [2] 0.078 | gefitinib -0.002 | [3] -0.041 | lapatinib -0.005 | pictilisib 0.107

NCBP2 (UniProt P52298)
inactive: [1] -0.132 | filanesib 0.002 | zotarolimus 0.01 | idasanutlin -0.002 | alisertib -0.014 | [2] 0.099 | gefitinib 0.072 | [3] -0.003 | lapatinib -0.037 | pictilisib 0.048

NAXD (UniProt Q8IW45)
inactive: [1] -0.038 | filanesib -0.014 | zotarolimus -0.012 | idasanutlin -0.008 | alisertib -0.068 | [2] -0.039 | gefitinib -0.007 | [3] -0.053 | lapatinib 0.018 | pictilisib -0.003

NA, A0A0B4J2A0
inactive: [1] 0.084 | filanesib -0.045 | zotarolimus -0.021 | idasanutlin -0.016 | alisertib 0.129 | [2] -0.029 | gefitinib -0.092 | [3] 0.023 | lapatinib -0.026 | pictilisib 0.05

NAT10 (UniProt Q9H0A0)
inactive: [1] -0.049 | filanesib 0.503 | zotarolimus 0.091 | idasanutlin 0.25 | alisertib -0.098 | [2] 0.017 | gefitinib 0.015 | [3] -0.279 | lapatinib 0.145 | pictilisib -0.132

Retrieved one by one from the list above (2):
NAT10 (UniProt Q9H0A0)
inactive: [1] -0.049 | filanesib 0.503 | zotarolimus 0.091 | idasanutlin 0.25 | alisertib -0.098 | [2] 0.017 | gefitinib 0.015 | [3] -0.279 | lapatinib 0.145 | pictilisib -0.132

NAXD (UniProt Q8IW45)
inactive: [1] -0.038 | filanesib -0.014 | zotarolimus -0.012 | idasanutlin -0.008 | alisertib -0.068 | [2] -0.039 | gefitinib -0.007 | [3] -0.053 | lapatinib 0.018 | pictilisib -0.003

(cont.)

NCLN (UniProt Q969V3)
inactive: [1] -0.069 | filanesib -0.027 | zotarolimus 0.006 | idasanutlin -0.001 | alisertib -0.05 | [2] -0.047 | gefitinib 0.006 | [3] -0.009 | lapatinib 0.006 | pictilisib -0.047

NAGK isoform 2 (UniProt Q9UJ70)
inactive: [1] 0 | filanesib -0.046 | zotarolimus -0.04 | idasanutlin -0.014 | alisertib 0.003 | [2] 0.038 | gefitinib 0.014 | [3] 0.056 | lapatinib 0.007 | pictilisib 0.062

NDUFA10 (UniProt O95299)
inactive: [1] -0.012 | filanesib -0.026 | zotarolimus 0.013 | idasanutlin -0.188 | alisertib 0.034 | [2] 0.033 | gefitinib -0.058 | [3] 0.073 | lapatinib -0.076 | pictilisib -0.009

NCALD (UniProt P61601)
inactive: [1] -0.048 | filanesib -0.179 | zotarolimus -0.03 | idasanutlin -0.053 | alisertib 0.029 | [2] -0.022 | gefitinib 0.082 | [3] 0.079 | lapatinib 0.071 | pictilisib 0.009

NEDD1 isoform 3 (UniProt Q8NHV4)
inactive: [1] -0.005 | filanesib -0.003 | zotarolimus -0.004 | idasanutlin -0.018 | alisertib -0.031 | [2] 0.025 | gefitinib 0.01 | [3] 0.03 | lapatinib -0.058 | pictilisib 0.153

NADK2 (UniProt Q4G0N4)
inactive: [1] -0.036 | filanesib -0.011 | zotarolimus -0.015 | idasanutlin -0.029 | alisertib -0.066 | [2] 0.018 | gefitinib 0.031 | [3] 0.035 | lapatinib -0.023 | pictilisib 0.016

NDUFA13 (UniProt Q9P0J0)
inactive: [1] 0.043 | filanesib -0.092 | zotarolimus 0.021 | idasanutlin -0.019 | alisertib -0.026 | [2] -0.088 | gefitinib 0 | [3] 0.043 | lapatinib 0.036 | pictilisib 0.044

NDUFV3 isoform 2 (UniProt P56181)
inactive: [1] -0.117 | filanesib 0.042 | zotarolimus -0.03 | idasanutlin 0.063 | alisertib -0.048 | [2] -0.014 | gefitinib -0.017 | [3] 0.044 | lapatinib 0 | pictilisib 0

NDE1 isoform 1 (UniProt Q9NXR1)
inactive: [1] -0.004 | filanesib -0.002 | zotarolimus -0.025 | idasanutlin 0.007 | alisertib -0.041 | [2] -0.016 | gefitinib -0.033 | [3] 0 | lapatinib 0.029 | pictilisib 0.013

NDUFAF2 (UniProt Q8N183)
inactive: [1] 0.052 | filanesib -0.047 | zotarolimus -0.067 | idasanutlin -0.05 | alisertib -0.025 | [2] -0.077 | gefitinib -0.007 | [3] 0.032 | lapatinib 0.006 | pictilisib 0.052

NBAS (UniProt A2RRP1)
inactive: [1] 0.027 | filanesib 0.289 | zotarolimus 0.174 | idasanutlin 0.096 | alisertib -0.08 | [2] -0.075 | gefitinib 0.002 | [3] -0.22 | lapatinib 0.099 | pictilisib -0.035

NDUFS1 isoform 2 (UniProt P28331)
inactive: [1] -0.045 | filanesib -0.094 | zotarolimus 0.024 | idasanutlin -0.162 | alisertib -0.01 | [2] 0.018 | gefitinib -0.016 | [3] 0.011 | lapatinib -0.03 | pictilisib -0.007

NDUFB1 (UniProt O75438)
inactive: [1] 0.031 | filanesib -0.029 | zotarolimus -0.055 | idasanutlin 0.029 | alisertib -0.062 | [2] -0.08 | gefitinib 0.083 | [3] 0.076 | lapatinib -0.028 | pictilisib -0.196

NAA20 (UniProt P61599)
inactive: [1] -0.099 | filanesib -0.066 | zotarolimus 0.058 | idasanutlin -0.082 | alisertib 0.078 | [2] -0.01 | gefitinib 0.025 | [3] 0.059 | lapatinib -0.031 | pictilisib -0.01

NECTIN2 (UniProt Q92692)
inactive: [1] -0.028 | filanesib 0.027 | zotarolimus -0.042 | idasanutlin -0.003 | alisertib -0.084 | [2] 0.011 | gefitinib 0.06 | [3] 0.014 | lapatinib -0.01 | pictilisib 0.021

NEBL isoform 2 (UniProt O76041)
inactive: [1] -0.006 | filanesib -0.026 | zotarolimus 0.011 | idasanutlin 0.021 | alisertib 0 | [2] 0.039 | gefitinib 0.009 | [3] 0.068 | lapatinib -0.039 | pictilisib 0.002
